# Reference: US20130196383A1, “Method of Producing Dicer” (published 2013)
# Chains of the proteins cited; added tags and fusions are not shown. A line that says so, or that is headed by a name, gives the form on record, which may keep a tag or linker.
# hDcr-N/hDcr-C complex (Homo sapiens), one chain, as listed by the source: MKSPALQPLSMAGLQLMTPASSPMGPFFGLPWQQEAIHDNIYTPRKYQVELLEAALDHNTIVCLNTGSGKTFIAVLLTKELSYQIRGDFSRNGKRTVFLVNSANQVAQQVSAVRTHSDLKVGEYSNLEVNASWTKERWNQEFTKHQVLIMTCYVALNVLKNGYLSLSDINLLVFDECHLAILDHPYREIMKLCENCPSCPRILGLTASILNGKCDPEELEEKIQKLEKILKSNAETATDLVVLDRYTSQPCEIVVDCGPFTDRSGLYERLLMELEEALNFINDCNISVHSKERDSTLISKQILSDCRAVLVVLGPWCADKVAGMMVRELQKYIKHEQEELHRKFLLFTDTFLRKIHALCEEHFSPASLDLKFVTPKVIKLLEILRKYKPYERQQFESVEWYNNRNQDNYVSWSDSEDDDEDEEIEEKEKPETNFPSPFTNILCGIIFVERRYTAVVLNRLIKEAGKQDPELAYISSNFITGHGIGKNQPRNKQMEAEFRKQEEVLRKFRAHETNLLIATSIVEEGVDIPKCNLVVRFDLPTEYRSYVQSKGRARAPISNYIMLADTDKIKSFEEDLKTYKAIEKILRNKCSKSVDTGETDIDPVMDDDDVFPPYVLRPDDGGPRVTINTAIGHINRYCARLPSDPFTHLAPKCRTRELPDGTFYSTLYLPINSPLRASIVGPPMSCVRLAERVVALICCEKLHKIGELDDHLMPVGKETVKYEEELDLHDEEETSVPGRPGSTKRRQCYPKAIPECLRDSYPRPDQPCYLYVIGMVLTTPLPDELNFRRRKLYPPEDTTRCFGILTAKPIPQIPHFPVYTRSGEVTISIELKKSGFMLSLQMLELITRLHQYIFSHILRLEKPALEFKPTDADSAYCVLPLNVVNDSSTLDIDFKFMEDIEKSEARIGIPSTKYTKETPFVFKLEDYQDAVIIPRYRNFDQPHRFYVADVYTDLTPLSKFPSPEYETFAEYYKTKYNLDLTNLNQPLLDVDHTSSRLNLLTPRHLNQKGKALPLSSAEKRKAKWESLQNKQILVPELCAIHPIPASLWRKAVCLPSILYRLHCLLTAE
# DP/hDcr-C complex (Homo sapiens), one chain, as listed by the source: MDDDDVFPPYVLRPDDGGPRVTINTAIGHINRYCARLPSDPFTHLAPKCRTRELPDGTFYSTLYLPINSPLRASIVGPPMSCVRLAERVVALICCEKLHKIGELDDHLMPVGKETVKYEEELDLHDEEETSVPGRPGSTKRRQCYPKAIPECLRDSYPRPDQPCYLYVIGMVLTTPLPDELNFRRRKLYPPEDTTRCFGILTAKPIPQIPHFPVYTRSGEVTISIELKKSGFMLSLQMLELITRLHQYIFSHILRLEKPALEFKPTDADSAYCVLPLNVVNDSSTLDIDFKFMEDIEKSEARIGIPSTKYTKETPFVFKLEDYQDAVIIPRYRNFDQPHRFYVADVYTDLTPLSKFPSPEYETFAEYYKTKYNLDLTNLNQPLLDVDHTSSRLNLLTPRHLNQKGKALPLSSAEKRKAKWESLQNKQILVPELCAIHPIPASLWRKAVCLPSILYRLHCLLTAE
# For some of these results: The comparison behind a weaker result is the experiment's own reference, which may not be listed here. For some of these results: Where a protein sequence is shown, tags need not be part of it.
# Tests used:
# Assay in all cases: enzyme reaction in vitro
# [1] = target: T1, hDcr-C (RNase IIIa/IIIb-dsRBD) fragment of human Dicer (Homo sapiens) (UniProt Q9UPY3); settings: mainly 15-nt product, purified recombinant protein, protein details: expressed from pHMGWA-His6-MBP vector, E. coli
# T1 sequence: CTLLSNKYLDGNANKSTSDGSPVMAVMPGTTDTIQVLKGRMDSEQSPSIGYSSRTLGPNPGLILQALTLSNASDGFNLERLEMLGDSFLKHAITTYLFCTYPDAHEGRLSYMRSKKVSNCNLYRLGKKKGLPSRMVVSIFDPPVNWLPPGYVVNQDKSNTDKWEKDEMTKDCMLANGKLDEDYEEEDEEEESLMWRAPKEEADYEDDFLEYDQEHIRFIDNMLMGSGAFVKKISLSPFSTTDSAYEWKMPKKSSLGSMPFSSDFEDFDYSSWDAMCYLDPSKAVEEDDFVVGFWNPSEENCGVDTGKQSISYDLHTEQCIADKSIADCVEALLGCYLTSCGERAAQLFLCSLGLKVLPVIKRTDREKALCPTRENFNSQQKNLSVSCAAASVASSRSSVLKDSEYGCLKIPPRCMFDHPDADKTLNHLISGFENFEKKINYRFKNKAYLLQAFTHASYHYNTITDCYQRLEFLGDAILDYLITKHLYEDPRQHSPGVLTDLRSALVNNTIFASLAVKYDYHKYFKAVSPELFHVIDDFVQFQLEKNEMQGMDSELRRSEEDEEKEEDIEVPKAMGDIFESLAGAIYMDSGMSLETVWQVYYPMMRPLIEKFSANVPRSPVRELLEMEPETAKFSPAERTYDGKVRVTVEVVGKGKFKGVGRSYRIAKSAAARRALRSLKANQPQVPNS
# [2] = target: Human Dicer full-length (FL-hDcr) (Homo sapiens) (UniProt Q9UPY3); settings: unfavorable substrate, similar to 37ab; purified recombinant protein; protein details: baculovirus-infected Sf9 expressed; label: 5'-32P; variant of pre-hlet-7a-1
# [3] = target: human Dicer lacking ATPase/helicase domain (Homo sapiens) (UniProt Q9UPY3); settings: all substrates cleaved in similar manner, purified recombinant protein
# [4] = tested on: DP/hDcr-C complex (Homo sapiens); settings: DP addition restores full-length dicing pattern; purified recombinant protein; protein details: E. coli expressed, mixed in trans; label: 5'-32P on one strand (37a)
# [5] = tested on: hDcr-N/hDcr-C complex (Homo sapiens); settings: activity similar to FL-hDcr; 1.5 mM MgCl2; purified recombinant protein; protein details: co-expressed in Sf9, Ni2+ column then TEV cleavage; label: 5'-32P on one strand (37a)
# [6] = label: 5'-32P on one strand (37a)
sequence,measurement,setting,value
UAAAGUGCUUAUAGUGCAGGUAGUGUGUAGCCAUCUACUGCAUUACGAGCACUUAAAG [pre-miR20a],activity on this sequence,[1]; label: 5'-32P,active
UGAGGUAGUAGGUUGUAUAGUUUGAAAGUUCACGAUU / AAUCGUGAACUUUCAAACUAUACAAUCUACUGUCUUACC [hlet7-stem],activity on this sequence,[2],less active
same,activity on this sequence,"[3]; label: 5'-32P, variant of pre-hlet-7a-1",active
UGAGGUAGUAGGUUGUAUAGUUUGAAAGUUCACGAUU / UCGUGAACUUUCAAACUAUACAACCUACUACCUCAUU [37ab],activity on this sequence,[4],active
same,activity on this sequence,[1]; [6],active
same,activity on this sequence,[5],active
same,activity on this sequence,[3]; [6],active
